According to PMC3762332:
Construct, isoform or probe ends are uncertain for at least one entry. For part of these data: Tags and fusion partners may be left off the protein sequences shown.

Chains of the proteins cited; added tags and fusions are not shown. Lines headed by an entry give the natural chain unless they say otherwise; changes in a name come on top.
UniProt P23771: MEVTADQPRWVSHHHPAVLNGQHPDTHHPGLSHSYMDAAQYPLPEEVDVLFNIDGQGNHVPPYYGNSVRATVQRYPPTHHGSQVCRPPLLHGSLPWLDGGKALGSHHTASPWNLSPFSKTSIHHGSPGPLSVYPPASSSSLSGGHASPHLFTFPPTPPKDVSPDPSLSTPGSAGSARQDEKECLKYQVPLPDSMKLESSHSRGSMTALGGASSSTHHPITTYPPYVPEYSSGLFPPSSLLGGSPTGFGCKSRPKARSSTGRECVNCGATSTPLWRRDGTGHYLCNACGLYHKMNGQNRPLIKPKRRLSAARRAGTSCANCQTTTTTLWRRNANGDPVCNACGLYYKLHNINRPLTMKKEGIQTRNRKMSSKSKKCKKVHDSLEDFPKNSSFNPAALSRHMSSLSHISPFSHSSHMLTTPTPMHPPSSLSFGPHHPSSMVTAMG
UniProt Q96EB6: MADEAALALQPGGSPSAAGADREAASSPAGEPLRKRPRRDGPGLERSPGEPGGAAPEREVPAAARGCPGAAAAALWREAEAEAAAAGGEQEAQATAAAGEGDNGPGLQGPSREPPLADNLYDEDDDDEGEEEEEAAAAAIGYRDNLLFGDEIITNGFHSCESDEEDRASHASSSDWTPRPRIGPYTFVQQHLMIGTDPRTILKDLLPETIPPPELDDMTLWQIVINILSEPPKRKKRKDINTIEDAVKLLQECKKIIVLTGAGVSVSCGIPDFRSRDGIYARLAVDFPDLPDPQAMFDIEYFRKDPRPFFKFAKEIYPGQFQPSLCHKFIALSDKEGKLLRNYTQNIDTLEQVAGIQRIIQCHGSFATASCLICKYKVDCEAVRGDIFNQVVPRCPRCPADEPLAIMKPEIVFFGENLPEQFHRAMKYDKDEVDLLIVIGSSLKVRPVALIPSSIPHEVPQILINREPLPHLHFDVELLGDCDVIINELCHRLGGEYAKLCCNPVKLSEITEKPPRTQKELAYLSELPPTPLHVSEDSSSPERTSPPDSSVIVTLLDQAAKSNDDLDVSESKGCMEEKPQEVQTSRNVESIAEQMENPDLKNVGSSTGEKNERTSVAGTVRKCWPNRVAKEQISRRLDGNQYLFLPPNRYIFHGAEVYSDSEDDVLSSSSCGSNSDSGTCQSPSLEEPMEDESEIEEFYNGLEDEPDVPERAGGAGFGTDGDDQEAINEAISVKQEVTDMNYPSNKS
UniProt Q8IW36: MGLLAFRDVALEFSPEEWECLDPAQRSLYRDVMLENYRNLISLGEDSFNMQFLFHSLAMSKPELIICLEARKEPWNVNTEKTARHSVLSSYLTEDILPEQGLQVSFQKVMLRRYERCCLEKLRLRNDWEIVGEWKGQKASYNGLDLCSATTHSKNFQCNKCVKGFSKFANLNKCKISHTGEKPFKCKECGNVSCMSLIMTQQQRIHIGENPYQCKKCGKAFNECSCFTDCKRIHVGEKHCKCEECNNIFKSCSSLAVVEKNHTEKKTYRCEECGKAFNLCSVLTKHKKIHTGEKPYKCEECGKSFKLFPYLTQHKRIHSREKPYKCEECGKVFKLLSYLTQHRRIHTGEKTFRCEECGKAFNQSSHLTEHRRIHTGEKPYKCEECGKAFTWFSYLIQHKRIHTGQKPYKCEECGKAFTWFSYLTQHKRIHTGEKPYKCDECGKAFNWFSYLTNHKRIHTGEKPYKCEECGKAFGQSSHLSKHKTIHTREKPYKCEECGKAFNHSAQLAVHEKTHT
UniProt P05549: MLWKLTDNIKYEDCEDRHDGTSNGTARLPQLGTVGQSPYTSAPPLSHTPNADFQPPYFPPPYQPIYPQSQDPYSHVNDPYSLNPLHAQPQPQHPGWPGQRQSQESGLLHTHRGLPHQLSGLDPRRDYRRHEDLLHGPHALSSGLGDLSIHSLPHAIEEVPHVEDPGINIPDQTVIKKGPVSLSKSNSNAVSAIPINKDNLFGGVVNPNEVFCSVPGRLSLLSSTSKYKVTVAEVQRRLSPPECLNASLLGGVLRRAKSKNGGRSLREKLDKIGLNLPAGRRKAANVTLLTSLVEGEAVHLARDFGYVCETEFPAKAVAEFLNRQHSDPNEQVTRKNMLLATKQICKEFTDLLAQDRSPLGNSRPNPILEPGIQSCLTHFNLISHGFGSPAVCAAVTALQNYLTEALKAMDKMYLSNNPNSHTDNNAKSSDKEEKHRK
UniProt Q9HBZ2, whole entry: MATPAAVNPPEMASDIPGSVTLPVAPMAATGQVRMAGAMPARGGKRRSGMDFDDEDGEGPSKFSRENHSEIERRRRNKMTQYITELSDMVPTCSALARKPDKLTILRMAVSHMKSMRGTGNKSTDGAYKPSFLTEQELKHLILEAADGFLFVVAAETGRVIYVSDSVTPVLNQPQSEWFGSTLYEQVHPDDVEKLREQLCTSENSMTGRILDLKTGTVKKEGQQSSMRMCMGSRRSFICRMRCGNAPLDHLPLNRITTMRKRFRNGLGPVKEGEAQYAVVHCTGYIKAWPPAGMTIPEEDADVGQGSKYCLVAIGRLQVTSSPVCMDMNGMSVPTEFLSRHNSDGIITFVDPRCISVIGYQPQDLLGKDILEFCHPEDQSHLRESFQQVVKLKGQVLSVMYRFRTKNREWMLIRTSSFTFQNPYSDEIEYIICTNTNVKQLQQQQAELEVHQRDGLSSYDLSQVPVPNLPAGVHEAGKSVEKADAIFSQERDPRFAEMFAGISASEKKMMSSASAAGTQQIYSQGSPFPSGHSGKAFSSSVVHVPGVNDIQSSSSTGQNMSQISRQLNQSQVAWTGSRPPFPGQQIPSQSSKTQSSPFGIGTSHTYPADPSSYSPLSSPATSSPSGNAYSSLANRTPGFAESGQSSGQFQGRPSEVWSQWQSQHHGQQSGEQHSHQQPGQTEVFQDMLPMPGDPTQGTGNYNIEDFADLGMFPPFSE

What was measured:
Assay in all cases: protein microarray
Settings in all cases: 10-fold cold unmethylated competitor; 5mC at CpG (SssI, both strands); recombinant protein; protein details: GST (N-terminal); label: Cy5
ARID3B (Homo sapiens) = biological target: T1, ARID3B (Homo sapiens) (UniProt Q8IVW6)
T1 sequence (looked up, limits assumed): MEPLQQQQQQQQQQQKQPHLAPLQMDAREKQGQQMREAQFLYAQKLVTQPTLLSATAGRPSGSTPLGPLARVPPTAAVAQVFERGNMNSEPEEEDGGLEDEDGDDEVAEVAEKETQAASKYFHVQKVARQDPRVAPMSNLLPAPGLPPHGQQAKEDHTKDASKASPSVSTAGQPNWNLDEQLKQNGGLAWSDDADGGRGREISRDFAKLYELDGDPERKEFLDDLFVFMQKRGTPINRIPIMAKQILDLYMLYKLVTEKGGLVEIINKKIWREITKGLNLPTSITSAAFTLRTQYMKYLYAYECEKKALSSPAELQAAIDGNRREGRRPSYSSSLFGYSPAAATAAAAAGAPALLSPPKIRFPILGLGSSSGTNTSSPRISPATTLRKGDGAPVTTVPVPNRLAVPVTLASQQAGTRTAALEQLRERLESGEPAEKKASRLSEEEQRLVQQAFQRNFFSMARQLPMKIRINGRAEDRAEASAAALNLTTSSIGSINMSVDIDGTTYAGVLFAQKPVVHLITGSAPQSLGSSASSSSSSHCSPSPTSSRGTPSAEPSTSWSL

GATA3 (Homo sapiens) = GATA3 (Homo sapiens) (UniProt P23771)
SIRT1 (Homo sapiens) = SIRT1 (Homo sapiens) (UniProt Q96EB6)
SMAD4 (Homo sapiens) = biological target: T2, SMAD4 (Homo sapiens) (UniProt Q13485)
T2 sequence (looked up, limits assumed): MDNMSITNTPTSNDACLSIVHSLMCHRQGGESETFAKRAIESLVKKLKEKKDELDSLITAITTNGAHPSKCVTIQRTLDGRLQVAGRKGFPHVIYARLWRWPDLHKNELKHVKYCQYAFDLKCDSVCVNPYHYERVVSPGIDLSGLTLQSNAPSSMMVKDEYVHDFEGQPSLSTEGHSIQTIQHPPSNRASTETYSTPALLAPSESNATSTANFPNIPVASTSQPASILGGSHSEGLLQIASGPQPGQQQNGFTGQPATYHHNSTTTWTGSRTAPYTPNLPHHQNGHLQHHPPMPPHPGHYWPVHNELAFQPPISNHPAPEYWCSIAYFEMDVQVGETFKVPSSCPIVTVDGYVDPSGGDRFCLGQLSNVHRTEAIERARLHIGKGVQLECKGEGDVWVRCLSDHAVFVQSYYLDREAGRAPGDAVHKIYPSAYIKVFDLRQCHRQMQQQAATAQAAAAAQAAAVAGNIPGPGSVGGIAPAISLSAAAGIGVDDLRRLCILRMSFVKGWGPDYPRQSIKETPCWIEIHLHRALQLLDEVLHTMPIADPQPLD

SSRP1 (Homo sapiens) = SSRP1 (Homo sapiens) (UniProt Q08945)
ZNF695 (Homo sapiens) = ZNF695 (Homo sapiens) (UniProt Q8IW36)
NRF1 (Homo sapiens) = biological target: T3, NRF1 (Homo sapiens) (UniProt Q16656)
T3 sequence (looked up, limits assumed): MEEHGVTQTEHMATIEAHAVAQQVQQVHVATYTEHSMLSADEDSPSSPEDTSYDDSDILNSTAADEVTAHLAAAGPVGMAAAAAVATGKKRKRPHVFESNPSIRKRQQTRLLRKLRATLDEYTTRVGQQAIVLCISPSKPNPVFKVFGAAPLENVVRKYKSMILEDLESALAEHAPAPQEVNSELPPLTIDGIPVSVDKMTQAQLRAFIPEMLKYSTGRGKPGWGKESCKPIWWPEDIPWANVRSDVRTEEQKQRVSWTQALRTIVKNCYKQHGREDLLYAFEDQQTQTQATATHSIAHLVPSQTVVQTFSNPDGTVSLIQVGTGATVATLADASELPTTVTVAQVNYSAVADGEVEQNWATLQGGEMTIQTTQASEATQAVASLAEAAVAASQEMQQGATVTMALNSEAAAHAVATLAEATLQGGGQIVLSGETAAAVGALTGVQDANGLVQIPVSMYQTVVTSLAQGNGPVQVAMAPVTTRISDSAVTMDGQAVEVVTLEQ

TFAP2A (Homo sapiens) = TFAP2A (Homo sapiens) (UniProt P05549)
ARNT2 (Homo sapiens) = ARNT2 (Homo sapiens) (UniProt Q9HBZ2)
CALR (Homo sapiens) = biological target: T4, CALR (Homo sapiens) (UniProt P27797)
T4 sequence (looked up, limits assumed): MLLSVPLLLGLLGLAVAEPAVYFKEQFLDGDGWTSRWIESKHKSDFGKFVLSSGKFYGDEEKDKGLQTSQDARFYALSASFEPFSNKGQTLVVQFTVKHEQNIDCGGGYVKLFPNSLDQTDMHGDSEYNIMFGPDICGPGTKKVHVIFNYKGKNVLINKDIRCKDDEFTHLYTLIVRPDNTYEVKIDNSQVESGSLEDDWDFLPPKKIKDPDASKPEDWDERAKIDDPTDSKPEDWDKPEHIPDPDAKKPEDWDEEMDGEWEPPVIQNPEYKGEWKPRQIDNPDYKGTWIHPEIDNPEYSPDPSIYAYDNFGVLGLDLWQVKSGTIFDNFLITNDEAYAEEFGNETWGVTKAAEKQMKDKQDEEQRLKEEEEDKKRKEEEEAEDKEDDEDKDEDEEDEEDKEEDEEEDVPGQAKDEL

E2F6 (Homo sapiens) = biological target: T5, E2F6 (Homo sapiens) (UniProt O75461)
T5 sequence (looked up, limits assumed): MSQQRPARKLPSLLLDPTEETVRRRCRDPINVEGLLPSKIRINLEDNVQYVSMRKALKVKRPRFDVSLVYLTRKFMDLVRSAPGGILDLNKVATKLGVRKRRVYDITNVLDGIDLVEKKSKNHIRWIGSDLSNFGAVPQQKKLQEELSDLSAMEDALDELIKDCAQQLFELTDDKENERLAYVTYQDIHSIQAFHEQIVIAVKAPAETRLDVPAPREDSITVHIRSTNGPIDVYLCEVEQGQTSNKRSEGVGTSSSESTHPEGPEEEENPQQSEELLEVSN

Measured: binding result

AGGCCGCTTTAGGCCGCCCCTATAGTGAGTGCTATTA (double strand) [M304]
binds: ARID3B (Homo sapiens) | GATA3 (Homo sapiens) | SIRT1 (Homo sapiens) | SMAD4 (Homo sapiens) | SSRP1 (Homo sapiens) | ZNF695 (Homo sapiens)

CATCCGGGAAACATCCGGGCCCTATAGTGAGTGCTATTA (double strand) [M322]
binds: NRF1 (Homo sapiens) | SMAD4 (Homo sapiens) | TFAP2A (Homo sapiens) | ZNF695 (Homo sapiens)

CGGATGTAAACGGATGTCCCTATAGTGAGTGCTATTA (double strand) [M27]
binds: NRF1 (Homo sapiens) | SMAD4 (Homo sapiens) | TFAP2A (Homo sapiens) | ZNF695 (Homo sapiens)

TGTTCCGATTTTGTTCCGACCCTATAGTGAGTGCTATTA (double strand) [M447]
binds: NRF1 (Homo sapiens) | SMAD4 (Homo sapiens)

CTGCCGCAAACTGCCGCCCCTATAGTGAGTGCTATTA (double strand) [M95]
binds: GATA3 (Homo sapiens) | NRF1 (Homo sapiens) | SMAD4 (Homo sapiens)

CCGGAGCAAACCGGAGCCCCTATAGTGAGTGCTATTA (double strand) [M301]
binds: NRF1 (Homo sapiens) | SMAD4 (Homo sapiens) | TFAP2A (Homo sapiens) | ZNF695 (Homo sapiens)

CGCTTCCAAACGCTTCCCCCTATAGTGAGTGCTATTA (double strand) [M319]
not listed: SIRT1 (Homo sapiens) | CALR (Homo sapiens) | E2F6 (Homo sapiens)
binds: all other assays above

CCGGAACTTTCCGGAACCCCTATAGTGAGTGCTATTA (double strand) [M318]
binds: ARID3B (Homo sapiens) | GATA3 (Homo sapiens) | NRF1 (Homo sapiens) | SMAD4 (Homo sapiens) | ZNF695 (Homo sapiens)

ACGTGGGTTTACGTGGGCCCTATAGTGAGTGCTATTA (double strand) [M327]
binds: GATA3 (Homo sapiens) | NRF1 (Homo sapiens) | SMAD4 (Homo sapiens) | TFAP2A (Homo sapiens) | ZNF695 (Homo sapiens)

GTCACGCCCAAAGTCACGCCCCCCTATAGTGAGTGCTATTA (double strand) [M213]
binds: CALR (Homo sapiens) | E2F6 (Homo sapiens) | NRF1 (Homo sapiens) | TFAP2A (Homo sapiens) | ZNF695 (Homo sapiens)

ACGTCAGAAAACGTCAGCCCTATAGTGAGTGCTATTA (double strand) [M303]
binds: ARID3B (Homo sapiens) | SMAD4 (Homo sapiens) | TFAP2A (Homo sapiens) | ZNF695 (Homo sapiens)

CGCTGCCAAACGCTGCCCCCTATAGTGAGTGCTATTA (double strand) [M305]
binds: NRF1 (Homo sapiens) | SMAD4 (Homo sapiens) | SSRP1 (Homo sapiens) | ZNF695 (Homo sapiens)
